From the supplement of paper PMC9744312
Structures can show the parent of a compound that is named as a salt. This is one part of the list. This is a noisy data set.

Each compound was assayed on Peyronie's disease tunica albuginea primary fibroblasts (assay: inhibition of TGF-beta1-induced alpha-SMA expression (myofibroblast transformation), relative to TGF-beta1-only and untreated controls; higher = stronger inhibition of myofibroblast transformation). Details: 10 µM; TGF-beta1 10 ng/mL; 72 h.

**Q.** For `CNC(=O)[C@@H](NC(=O)[C@H](CC(C)C)[C@H](O)C(=O)NO)C(C)(C)C` [Marimastat (BB-2516)], which “inhibition of TGF-beta1-induced alpha-SMA expression” value (“inhibition” below) is on record?
**A.** 3.07%

**Q.** For `C[C@]12CC[C@@H]3c4ccc(O)cc4C[C@@H](CCCCCCCCC[S+]([O-])CCCC(F)(F)C(F)(F)F)[C@H]3[C@@H]1CC[C@@H]2O` (some centres not stated) [Fulvestrant], which “inhibition” value is on record?
**A.** 19.6%

**Q.** Which “inhibition” value does the source give for `CO/N=C(\C(=O)N[C@@H]1C(=O)N2C(C(=O)O)=C(COC(C)=O)CS[C@H]12)c1csc(N)n1` [Cefotaxime sodium] here?
**A.** 9.28%

**Q.** Which “inhibition” value does the source give for `NC(=O)C1CCCc2c1[nH]c1ccc(Cl)cc21` (configuration not stated) [Selisistat (EX 527)] here?
**A.** 71.1%

**Q.** `COC(=O)[C@H](Cc1ccccc1)NC(=O)[C@@H](N)CC(=O)O` [Aspartame] was tested. Which “inhibition” value did it give?
**A.** 7.58%

**Q.** How did the “inhibition” value turn out when `N#C/C(=C1/SC[C@@H](c2ccc(Cl)cc2Cl)S1)n1ccnc1` [Luliconazole] was run?
**A.** -16.4%

**Q.** For `O=C1O[C@H]([C@@H](O)CO)C([O-])=C1O.[Na+]` [Sodium ascorbate], which “inhibition” value is on record?
**A.** 1.11%

**Q.** How did the “inhibition” value turn out when `CCCCOc1cc(C(=O)OCCN(CC)CC)ccc1N` [Oxybuprocaine HCl] was run?
**A.** 45.1%

**Q.** How did the “inhibition” value turn out when `Clc1ccc2nsnc2c1NC1=NCCN1` [Tizanidine] was run?
**A.** 0.172%

**Q.** How did the “inhibition” value turn out when `Clc1ccc2nsnc2c1NC1=NCCN1` [Tizanidine HCl] was run?
**A.** 20.1%

**Q.** `Cc1cc(Nc2cc(N3CCN(C)CC3)nc(Sc3ccc(NC(=O)C4CC4)cc3)n2)n[nH]1` [Tozasertib (VX-680, MK-0457)] was tested. Which “inhibition” value did it give?
**A.** 59.7%

**Q.** `CC(C)Oc1ccc2c(=O)c(-c3ccccc3)coc2c1` [Ipriflavone (Osteofix)] was tested. Which “inhibition” value did it give?
**A.** -9.87%

**Q.** Which “inhibition” value does the source give for `CC(=O)Nc1nnc(S(N)(=O)=O)s1` [Acetazolamide] here?
**A.** 23.9%

**Q.** For `O=C(O)C1=C(CSc2nnnn2CS(=O)(=O)O)CS[C@@H]2[C@H](NC(=O)[C@H](O)c3ccccc3)C(=O)N12` [Cefonicid sodium], which “inhibition” value is on record?
**A.** -9.67%

**Q.** How did the “inhibition” value turn out when `CCc1cc2c(cc1CC)CC(NC[C@H](O)c1ccc(O)c3[nH]c(=O)ccc13)C2` [Indacaterol Maleate] was run?
**A.** 12.7%

**Q.** How did the “inhibition” value turn out when `CCc1cc2c(cc1CC)CC(NC[C@H](O)c1ccc(O)c3[nH]c(=O)ccc13)C2` [Indacaterol] was run?
**A.** 14.8%

**Q.** With `C=C[C@]1(C)C[C@@H](OC(=O)CSC(C)(C)CNC(=O)[C@H](N)C(C)C)[C@]2(C)[C@H](C)CC[C@]3(CCC(=O)[C@H]32)[C@@H](C)[C@@H]1O` [Valnemulin HCl] as the compound, how does the “inhibition” value read?
**A.** -5.12%

**Q.** How did the “inhibition” value turn out when `Cc1c(-c2ccc(O)cc2)n(Cc2ccc(OCCN3CCCCCC3)cc2)c2ccc(O)cc12` [Bazedoxifene Acetate] was run?
**A.** 72.4%

**Q.** How did the “inhibition” value turn out when `Cc1c(-c2ccc(O)cc2)n(Cc2ccc(OCCN3CCCCCC3)cc2)c2ccc(O)cc12` [Bazedoxifene HCl] was run?
**A.** 39%

**Q.** How did the “inhibition” value turn out when `NC[C@H](O)c1ccc(O)c(O)c1` [Noradrenaline bitartrate monohydrate] was run?
**A.** -7.32%

**Q.** `CCN(CC)CCNC(=O)c1ccc(N)cc1` [Procainamide HCl] was tested. Which “inhibition” value did it give?
**A.** 32.5%

**Q.** For `CC[C@H]1OC(=O)[C@H](C)[C@@H](O[C@H]2C[C@@](C)(OC)[C@@H](O)[C@H](C)O2)[C@H](C)[C@@H](O[C@@H]2O[C@H](C)C[C@H](N(C)C)[C@H]2O)[C@](C)(O)C[C@@H](C)CN(C)[C@H](C)[C@@H](O)[C@]1(C)O` [Azithromycin], which “inhibition” value is on record?
**A.** 42.2%

**Q.** How did the “inhibition” value turn out when `CC[C@H]1OC(=O)[C@H](C)[C@@H](O[C@H]2C[C@@](C)(OC)[C@@H](O)[C@H](C)O2)[C@H](C)[C@@H](O[C@@H]2O[C@H](C)C[C@H](N(C)C)[C@H]2O)[C@](C)(O)C[C@@H](C)CN(C)[C@H](C)[C@@H](O)[C@]1(C)O` [Azithromycin Dihydrate] was run?
**A.** 21.8%

**Q.** `CN1CCc2nc(C(=O)N[C@@H]3C[C@@H](C(=O)N(C)C)CC[C@@H]3NC(=O)C(=O)Nc3ccc(Cl)cn3)sc2C1` [Edoxaban tosylate Monohydrate] was tested. Which “inhibition” value did it give?
**A.** 44.8%

**Q.** `CN1CCc2nc(C(=O)N[C@@H]3C[C@@H](C(=O)N(C)C)CC[C@@H]3NC(=O)C(=O)Nc3ccc(Cl)cn3)sc2C1` [Edoxaban] was tested. Which “inhibition” value did it give?
**A.** 10.9%

**Q.** Which “inhibition” value does the source give for `CN[C@H]1CC[C@@H](c2ccc(Cl)c(Cl)c2)c2ccccc21` [Sertraline HCl] here?
**A.** -5.83%

**Q.** Which “inhibition” value does the source give for `O=C(O)c1cccc(-c2noc(-c3ccccc3F)n2)c1` [Ataluren (PTC124)] here?
**A.** -0.0335%

**Q.** `Nc1ccc(S(=O)(=O)Nc2nccs2)cc1` [Sulfathiazole] was tested. Which “inhibition” value did it give?
**A.** 18.3%

**Q.** `CC(C)[N+]1(C)[C@@H]2CC[C@H]1C[C@@H](OC(=O)C(CO)c1ccccc1)C2` (some centres not stated) [Ipratropium Bromide] was tested. Which “inhibition” value did it give?
**A.** 12.1%

**Q.** Which “inhibition” value does the source give for `Cc1ccc(-c2cc(C(F)(F)F)nn2-c2ccc(S(N)(=O)=O)cc2)cc1` [Celecoxib] here?
**A.** 57.5%

**Q.** Which “inhibition” value does the source give for `CC(C)NCC(O)COc1ccc(CC(N)=O)cc1` (configuration not stated) [Atenolol] here?
**A.** 55.5%

**Q.** For `CCOC(=O)[C@H]1O[C@@H]1C(=O)N[C@@H](CC(C)C)C(=O)NCCC(C)C` [Aloxistatin], which “inhibition” value is on record?
**A.** 11.8%

**Q.** With `CC(C)(C)c1cc(C(C)(C)C)c(NC(=O)c2c[nH]c3ccccc3c2=O)cc1O` [Ivacaftor (VX-770)] as the compound, how does the “inhibition” value read?
**A.** -9.84%

**Q.** `Cc1ccc([C@@H]2O[C@H](CO)[C@@H](O)[C@H](O)[C@H]2O)cc1Cc1ccc(-c2ccc(F)cc2)s1` [Canagliflozin] was tested. Which “inhibition” value did it give?
**A.** 11.8%

**Q.** `CN1CCN(CC(=O)N2c3ccccc3C(=O)Nc3cccnc32)CC1` [Pirenzepine dihydrochloride] was tested. Which “inhibition” value did it give?
**A.** 24.6%

**Q.** For `Cn1c(=O)c2c(ncn2CC2OCCO2)n(C)c1=O` [Doxofylline], which “inhibition” value is on record?
**A.** -7.01%

**Q.** `NC(=O)[C@@H]1CSSCCC(=O)N[C@@H](CCCCN=C(N)N)C(=O)NCC(=O)N[C@@H](CC(=O)O)C(=O)N[C@@H](Cc2c[nH]c3ccccc23)C(=O)N2CCC[C@H]2C(=O)N1` [Eptifibatide Acetate] was tested. Which “inhibition” value did it give?
**A.** 7.53%

**Q.** `CC[C@H](C)[C@H](N)C(=O)O` [isoleucine] was tested. Which “inhibition” value did it give?
**A.** 15.5%

**Q.** For `CCOc1nc2cccc(C(=O)O)c2n1Cc1ccc(-c2ccccc2-c2nnn[nH]2)cc1` [Candesartan], which “inhibition” value is on record?
**A.** -3.55%

**Q.** For `C[C@@](Cc1ccc(O)c(O)c1)(NN)C(=O)O` [Carbidopa], which “inhibition” value is on record?
**A.** -1.25%

**Q.** `Nc1ncnc2c1ncn2[C@@H]1O[C@H](CO)[C@@H](O)[C@@H]1O` [Vidarabine monohydrate] was tested. Which “inhibition” value did it give?
**A.** -9.59%

**Q.** How did the “inhibition” value turn out when `Nc1ncnc2c1ncn2[C@@H]1O[C@H](CO)[C@@H](O)[C@@H]1O` [Vidarabine] was run?
**A.** 4.43%
